# Reference: the supplement of paper PMC3334620
# Over roughly 33,000 sequences, “E-score (-0.5 to 0.5)” has its median near -0.0059; the highest 2% begin near 0.26. The list shows a part of the results.
# Biological target: T1, Cin5 (UniProt P40917)
# T1 sequence: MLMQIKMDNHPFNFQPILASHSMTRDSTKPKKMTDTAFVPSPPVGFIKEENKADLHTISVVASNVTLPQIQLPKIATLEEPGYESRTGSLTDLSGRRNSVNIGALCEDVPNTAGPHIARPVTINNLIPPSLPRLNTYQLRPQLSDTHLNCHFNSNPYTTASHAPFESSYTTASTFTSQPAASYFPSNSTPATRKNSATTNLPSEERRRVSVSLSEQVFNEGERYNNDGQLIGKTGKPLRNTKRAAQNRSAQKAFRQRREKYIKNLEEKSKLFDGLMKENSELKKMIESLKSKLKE
# Assay: PBM E-score (8-mer binding enrichment) (E-score (-0.5 to 0.5)); higher = stronger / more preferred TF binding
# Settings: protein concentration: 100 nM; construct: GST-full length
# Procedure: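 Universal 'all 10-mer' protein binding microarrays (Agilent AMADID 015681) probed with GST-tagged S. cerevisiae TFs (full-length or DBD) made by in vitro transcription/translation (PURExpress), about 100-200 nM. Bound TF was detected with fluorescent anti-GST. Each ungapped 8-mer (which stands for itself and its reverse complement) is scored by the PBM enrichment score (E-score), a modified Wilcoxon-Mann-Whitney statistic from -0.5 to +0.5, computed with the Universal PBM Analysis Suite. Scale: above 0.35 generally sequence-specific binding.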
row,Sequence,PBM E-score
1,ACCTACTA,0.165
2,TTACCGAA,0.218
3,ATTATGCG,0.338
4,ATAGGATC,-0.0205
5,TGATATCA,0.0713
6,CTATCACA,0.173
7,GCTTACCA,0.381
8,ACTGTGAG,-0.034
9,AGCATTCC,0.0595
10,CAAACCTA,0.133
11,CTTTTTTA,0.0209
12,CAACATAG,0.0889
13,AATCAGTA,0.223
14,GCGATGTA,0.0756
15,AATGCTTC,0.118
16,AGTACCAG,0.0123
17,AGTCTGTG,-0.136
18,ACCTCTGC,-0.143
19,GGACGTGA,-0.14
20,GAGTAAAC,0.0697
21,AGCTCGGG,0.0324
22,GTTAGAAC,-0.0566
23,TCAACCAA,0.0695
24,AATGAGAC,-0.0439
25,TGATGTAA,0.329

row,Sequence,PBM E-score
1,ACCTTGAT,0.12
2,GTGGTTCA,0.172
3,CACTACAC,0.00684
4,TAACCGGA,0.106
5,CTTTGGCC,-0.0561
6,CGTTTGGA,-0.0143
7,CGGGCATA,-0.108
8,AAGCTGCG,-0.0682
9,CACACGAC,-0.0441
10,AAGTTGTG,0.265
11,AACAAATA,0.278
12,ATTACACG,0.0848
13,AAAAACGT,0.00218
14,AGGCTTAC,0.258
15,CGGCATAC,-0.0796
16,TCCCACGA,-0.00171
17,CCGGACTA,0.00432
18,GCTAGGTA,-0.0363
19,AGGGTAAG,0.0407
20,TAAACGCA,0.0929
21,AGATGAAT,0.1
22,ATAACTCA,0.152
23,CTCTTTAA,-0.116
24,GAACGTAC,-0.115
25,GGGCATAA,0.035

# A second format for part of the listing above.
row	Sequence	PBM E-score
4	TAACCGGA	0.106
5	CTTTGGCC	-0.0561
6	CGTTTGGA	-0.0143
7	CGGGCATA	-0.108

# Additional records follow.

row,Sequence,PBM E-score
1,ACTCTTGA,-0.16
2,TCAATTAA,0.0498
3,GTGATCTA,0.084
4,CATACGTA,0.242
5,ACCACATA,0.0866
6,ACGCATCG,-0.00264
7,AGGCTGAT,0.00129
8,CCAAAAAA,0.174
9,GCTCCCCC,-0.462
10,CGTTGGGC,-0.0408
11,GAACTCTA,-0.0133
12,GGAGCGAC,-0.149
13,AGCCGCAC,-0.114
14,CATCGTTC,-0.0867
15,AACGTCAG,-0.00364
16,AACGCTGT,-0.0199
17,AATATCCC,0.153
18,ATTAGGGC,-0.0867
19,CAAATGCG,0.126
20,ATTGAACC,0.0817
21,GCAGTTAA,0.13
22,ATTCCTTG,-0.194
23,TCCTACCA,-0.22
24,GAAGGAAA,-0.102
25,TGAGGGCA,-0.0165

row,Sequence,PBM E-score
1,GGGTCAAC,0.143
2,ACATCTAC,0.145
3,GGGTTCGA,-0.142
4,GAATTTCA,0.0435
5,CTCATTGC,0.032
6,CCCTCTCG,-0.222
7,CCAGGCAC,-0.0617
8,TTCGGAAA,0.0337
9,CAACCAAC,-0.0614
10,AGCCTCCA,-0.159
11,ATTAGATA,0.301
12,CTAGCCTA,-0.171
13,CCTGACGA,0.0104
14,CGCCCTTC,-0.222
15,TAGCGTAA,0.229
16,AGGACGGG,-0.216
17,AGTATTGC,0.065
18,CTCTGCGC,-0.0221
19,GGTACAAC,0.0222
20,CAGAGTTC,-0.0406
21,CCCGCTAG,-0.199
22,CGCCTCAC,-0.0527
23,GCTAAAAC,-0.0775
24,GAACTTCA,-0.0563
25,GGTGTCAA,-0.0699

row,Sequence,PBM E-score
1,AGTGCCGA,-0.0154
2,GAGATAGC,0.0271
3,CTAATTAA,-0.0017
4,AACAATAT,0.345
5,ACAAACCC,0.0357
6,AGGGGAGC,-0.262
7,CACCGGAG,-0.115
8,GGACGGCC,-0.204
9,TACGCCCA,0.0142
10,CATCCTTC,0.0872
11,CGGTATAG,-0.0391
12,CTTAATGC,0.135
13,AAACAATT,0.154
14,AAACGGTG,-0.166
15,CATACAAC,0.197
16,AACCTGGA,0.0157
17,CCCCTCAG,-0.211
18,CTCCTACA,-0.011
19,CCGGATTC,0.0513
20,AACCACTT,0.126
21,AGCTTCCC,-0.174
22,TGCTACAA,0.0648
23,AAGTCTAA,-0.0864
24,CAATTTAG,0.161
25,TCTCATAA,0.165

row,Sequence,PBM E-score
1,CGGGTCGC,-0.112
2,TAGGTAAA,0.125
3,TGTAGAAA,-0.00542
4,ATGCTCAC,0.0224
5,CCTTCGCC,-0.338
6,ATTCGCGG,0.0945
7,ACATCTCC,0.021
8,ATGTCCCA,-0.146
9,GGATGCTA,-0.0218
10,ATTCCAAG,0.032
11,TAAGTGCA,0.202
12,ATGTGGTC,0.127
13,AATCATAA,0.164
14,CCGCTACC,0.0111
15,ACCCAAAT,0.0648
16,GATAGGGA,-0.129
17,AGACACTA,0.126
18,GATAGATC,0.00499
19,CCAGTTGA,-0.0468
20,GAGAAAGC,-0.0555
21,AACCACGT,-0.0437
22,ACTCCTGA,0.0279
23,TACCTGCA,0.0178
24,CACTCGGA,0.12
25,ACCCCGCT,-0.0379

# Reformatted: results already given.
row	Sequence	PBM E-score
12	ATGTGGTC	0.127
13	AATCATAA	0.164
14	CCGCTACC	0.0111

# Following part

row,Sequence,PBM E-score
1,AGAAACGG,-0.00443
2,GCTGATTA,0.279
3,GACGCGTA,0.0632
4,GGTAACAA,0.225
5,CATACTAC,0.0431
6,AGTACACG,-0.0913
7,GAAATCAC,0.149
8,AAAATTCT,0.0637
9,CTGTTCCC,-0.193
10,CGGGGATC,-0.251
11,AGTCGCCG,0.00437
12,AAGTTGTC,0.127
13,CAGCTCGA,0.0186
14,AGGTACGG,-0.152
15,ACAGGCGG,-0.0156
16,ATGACATG,0.0189
17,CAGAGTAG,0.0664
18,CGCTGATA,0.0246
19,ACGGCTGG,-0.193
20,ACTGGCCT,-0.128
21,TAAATATA,0.261
22,GCTTGGCA,-0.246

# Looked up one by one from the list above (4):
row,Sequence,PBM E-score
25,TGATGTAA,0.329
15,TAGCGTAA,0.229
21,CCCGCTAG,-0.199
4,ATAGGATC,-0.0205
